From PMC6949222
These are yes or no findings as the source states them, for the method shown. In cells and extracts the contact can be indirect. Some entries that bind do so weakly or less than the wild type.

Protein sequences, listed by entry. Tags and fused reporters are not part of them.
UniProt Q16539: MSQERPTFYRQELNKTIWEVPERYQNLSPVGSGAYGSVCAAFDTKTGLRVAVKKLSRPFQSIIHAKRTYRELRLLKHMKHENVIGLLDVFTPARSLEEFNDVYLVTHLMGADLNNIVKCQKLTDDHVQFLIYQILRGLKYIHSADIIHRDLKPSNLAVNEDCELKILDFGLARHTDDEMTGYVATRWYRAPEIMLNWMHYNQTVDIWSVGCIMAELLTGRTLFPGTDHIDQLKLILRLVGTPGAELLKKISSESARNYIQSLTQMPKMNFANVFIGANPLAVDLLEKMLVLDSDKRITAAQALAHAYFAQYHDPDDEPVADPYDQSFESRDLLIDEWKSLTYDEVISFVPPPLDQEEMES
UniProt Q15759: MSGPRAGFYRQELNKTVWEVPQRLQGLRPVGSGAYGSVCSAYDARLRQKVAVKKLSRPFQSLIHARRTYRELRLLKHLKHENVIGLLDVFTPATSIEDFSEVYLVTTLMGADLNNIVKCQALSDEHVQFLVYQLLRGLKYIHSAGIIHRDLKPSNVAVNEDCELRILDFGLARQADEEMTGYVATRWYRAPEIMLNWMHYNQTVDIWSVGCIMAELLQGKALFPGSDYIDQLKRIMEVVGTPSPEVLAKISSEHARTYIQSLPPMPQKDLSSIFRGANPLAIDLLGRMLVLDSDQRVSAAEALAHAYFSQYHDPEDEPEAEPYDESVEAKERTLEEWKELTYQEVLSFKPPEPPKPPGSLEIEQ
UniProt Q01105: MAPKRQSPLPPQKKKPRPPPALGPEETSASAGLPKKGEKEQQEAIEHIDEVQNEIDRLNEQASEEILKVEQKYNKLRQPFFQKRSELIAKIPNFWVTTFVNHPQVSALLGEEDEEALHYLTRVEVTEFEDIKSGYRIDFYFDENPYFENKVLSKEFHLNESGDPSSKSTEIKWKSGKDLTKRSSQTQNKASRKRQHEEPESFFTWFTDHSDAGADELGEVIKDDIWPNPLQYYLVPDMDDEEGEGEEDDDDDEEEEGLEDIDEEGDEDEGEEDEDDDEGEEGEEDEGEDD

Assays:
[1] = target: p38α (human (endogenous in HL60)) (UniProt Q16539); assay: co-IP; immunoprecipitation of endogenous SET, p38α and p38β with specific antibodies in HL60 and MOLM-13 cells, normal goat Ig as negative control; also HL60 cells treated with p38 inhibitors (Supplementary Fig. S4b)
[2] = target: protein kinase p38β (human (endogenous in HL60 and MOLM-13)) (UniProt Q15759); assay: as above

- binding [1]: binds
- binding [2]: binds
Substance: SET oncoprotein (from UniProt Q01105 1-290)
